Test: Detergency: rosin dissolution rate
Conditions: 7 minutes, shaking

| SMILES | Detergency: Rosin dissolution rate [%] |
| --- | --- |
| CCOCCOCCOCC [Comparative Example 8, Diethylene glycol diethyl ether] | ≥ 30 |
| CCCCCCOCCOCCO [Comparative Example 2, Diethylene glycol mono-n-hexyl ether] | < 15 |
| C=C(C)C1CC=C(C)CC1 (stereo not drawn) [Comparative Example 6, Limonene] | ≥ 30 |
| CCOCC(C)OC1CCCCC1 (stereo not drawn) [Example 2, propylene glycol ethyl cyclohexyl ether] | ≥ 30 |
| COCC(C)OC1CCCCC1 (stereo not drawn) [Example 1, propylene glycol methyl cyclohexyl ether] | ≥ 30 |
| CCCCOCCOCCO [Comparative Example 7, Diethylene glycol monobutyl ether] | ≥ 30 |
